Experimental data as given in PubChem BioAssay AID248 (DTP/NCI, 2004).
The list is a part of this screen's results and no random one: it is rich in T/C values a quarter to a half above the control, in often repeated tests (any T/C) and in doses without a T/C. Further doses and runs are listed elsewhere. T/C is the treated group as % of the vehicle group. Some doses have a count of surviving animals in place of a T/C: the source files T/C as zero there, which appears to mark a toxic dose or a test without result, not a measured value. Some doses without a T/C left all or most animals alive at the check, yet need not have been tolerated: survival well below the control is almost never listed, so the zero probably covers shortened survival too. Counts of survivors are from the toxicity check (mostly the fifth day) where no day follows; animals may have died later. Schedules are NCI's codes, taken here to give the interval after Q, in days (D) or hours (H), and the number of doses after X. Some schedules carry Z or #; the key to these is not given. Where survival is the endpoint, the PubChem record calls one and a half times the control and up active, and a quarter to a half above the control has no call in these data; cut-offs in other NCI protocols can differ. Some T/C values carry the count of animals alive at the toxicity check (mostly the fifth day); where none is given, no animal had died by that day.

System: L1210 leukemia ip in BDF1 mice, survival T/C
Assay: NCI In Vivo Anticancer Drug Screen. Data for tumor model L1210 Leukemia (intraperitoneal) in B6D2F1 (BDF1) mice
Conditions: T/C endpoint: mean survival time, higher T/C = longer survival
[1] = dose: 200.0 mg/kg/injection, schedule: Q04DX003 (ip), vehicle: saline with Tween-80
[2] = dose: 400.0 mg/kg/injection, schedule: Q04DX003 (ip), vehicle: saline with Tween-80
[3] = dose: 400.0 mg/kg/injection, schedule: Q01DX009 (ip), vehicle: saline with Tween-80
[4] = dose: 100.0 mg/kg/injection, schedule: Q04DX002 (ip), vehicle: saline with Tween-80
[5] = dose: 200.0 mg/kg/injection, schedule: Q04DX002 (ip), vehicle: saline with Tween-80
[6] = dose: 400.0 mg/kg/injection, schedule: Q04DX002 (ip), vehicle: saline with Tween-80
[7] = dose: 400.0 mg/kg/injection, schedule: Q04DX003 (ip), vehicle: Klucel (hydroxypropylcellulose) (HPC)
[8] = dose: 200.0 mg/kg/injection, schedule: Q01DX001 (ip), vehicle: saline
[9] = dose: 400.0 mg/kg/injection, schedule: Q01DX001 (ip), vehicle: saline

## FC(F)(F)C(F)(F)c1nc2nc(Cl)c(Cl)nc2[nH]1
dose: 200.0 mg/kg/injection, schedule: Q01DX009 (ip), vehicle: other
  survivor count: 1 of 6
dose: 200.0 mg/kg/injection, schedule: Q04DX003 (ip), vehicle: other
  T/C: 131 % of control
dose: 300.0 mg/kg/injection, schedule: Q04DX003 (ip), vehicle: other
  survivor count: 3 of 6
dose: 400.0 mg/kg/injection, schedule: Q04DX003 (ip), vehicle: other
  survivor count: 3 of 6

## N#CC1CCCC1=O (stereo not given)
dose: 100.0 mg/kg/injection, schedule: Q04DX003 (ip), vehicle: saline with Tween-80
  survivor count: 0 of 6
[1]
  survivor count: 0 of 6
[2]
  survivor count: 0 of 6

## C=C(Cl)c1c(C)cc(C)cc1C
dose: 200.0 mg/kg/injection, schedule: Q01DX009 (ip), vehicle: saline with Tween-80
  survivor count: 2 of 6
[3]
  survivor count: 0 of 6
[2]
  survivor count: 0 of 6

## NC(N)=N/N=C/c1cccc(O)c1
dose: 250.0 mg/kg/injection, schedule: Q01DX Z (ip), vehicle: saline
  survivor count: 0 of 6

## COc1ccc(N2C(=O)CC(Cl)C2=O)cc1 (stereo not given)
dose: 175.0 mg/kg/injection, schedule: Q04DX003 (ip), vehicle: saline with Tween-80
  survivor count: 0 of 6
dose: 350.0 mg/kg/injection, schedule: Q04DX003 (ip), vehicle: saline with Tween-80
  survivor count: 0 of 6

## O=C(c1ccccc1)c1cc(Cl)ccc1N1C(=O)C=CC1=O
dose: 50.0 mg/kg/injection, schedule: Q04DX002 (ip), vehicle: saline with Tween-80
  survivor count: 0 of 3
[4]
  survivor count: 0 of 3
[5]
  survivor count: 0 of 3
[6]
  survivor count: 0 of 3

## Nc1ccc(Cl)cc1C(=O)c1ccccc1
dose: 200.0 mg/kg/injection, schedule: Q04DX002 (ip), vehicle: DMSO
  survivor count: 2 of 3
dose: 400.0 mg/kg/injection, schedule: Q04DX002 (ip), vehicle: DMSO
  survivor count: 1 of 3

## C1CCN(CCC2CCNCC2)CC1
dose: 200.0 mg/kg/injection, schedule: Q04DX003 (ip), vehicle: saline
  survivor count: 2 of 6
dose: 400.0 mg/kg/injection, schedule: Q04DX003 (ip), vehicle: saline
  survivor count: 0 of 6

## CC1(C)C2CCC1(C)C(C(=O)C(F)(F)F)C2=O.CC1(C)C2CCC1(C)C(C(=O)C(F)(F)F)C2=O.[Co] (stereo not given)
dose: 400.0 mg/kg/injection, schedule: Q04DX002 (ip), vehicle: saline
  survivor count: 1 of 3

## O=C(O)c1ccc2c(ccc3ccc4ccccc4c32)c1
[7]
  survivor count: 2 of 6

## Clc1c(Cl)c(Cl)c2n[nH]nc2c1Cl
dose: 150.0 mg/kg/injection, schedule: Q01DX001 (ip), vehicle: saline
  survivor count: 1 of 6
dose: 300.0 mg/kg/injection, schedule: Q01DX001 (ip), vehicle: saline
  survivor count: 0 of 6

## CCCCc1ccc(-n2c(C)c(COC(=O)NC)c(COC(=O)NC)c2C)cc1
dose: 12.5 mg/kg/injection, schedule: Q01DX009 (ip), vehicle: Klucel (hydroxypropylcellulose) (HPC)
  T/C: 125 % of control [9 of 10 alive]
dose: 25.0 mg/kg/injection, schedule: Q01DX009 (ip), vehicle: Klucel (hydroxypropylcellulose) (HPC)
  T/C: 134 % of control
dose: 50.0 mg/kg/injection, schedule: Q01DX009 (ip), vehicle: Klucel (hydroxypropylcellulose) (HPC)
  T/C: 145 % of control
dose: 100.0 mg/kg/injection, schedule: Q01DX009 (ip), vehicle: Klucel (hydroxypropylcellulose) (HPC)
  survivor count: 5 of 10

## C[N+]1=C(/C=C/c2ccc(O)c3ncccc23)C(C)(C)c2ccccc21
dose: 120.0 mg/kg/injection, schedule: Q01DX009 (ip), vehicle: saline
  survivor count: 4 of 6
[8]
  survivor count: 1 of 4
dose: 240.0 mg/kg/injection, schedule: Q01DX009 (ip), vehicle: saline
  survivor count: 0 of 6
[9]
  survivor count: 1 of 4

## O=C(/C=C/c1ccccc1)c1ccc(O)cc1O
[9]
  survivor count: 2 of 4

## COC(=O)C[CH2][Pb]([c]1ccccc1)([c]1ccccc1)[c]1ccccc1
[6]
  survivor count: 2 of 3

## CC(C)CC(C)NCCOC(=O)c1ccc(N)cc1 (stereo not given)
dose: 150.0 mg/kg/injection, schedule: Q01DX001 (ip), vehicle: carboxymethylcellulose (CMC)
  survivor count: 0 of 6
dose: 300.0 mg/kg/injection, schedule: Q01DX001 (ip), vehicle: carboxymethylcellulose (CMC)
  survivor count: 0 of 6

## N=C(N)SCc1c(-c2ccccc2)oc(-c2ccccc2)c1CSC(=N)N
dose: 25.0 mg/kg/injection, schedule: Q01DX009 (ip), vehicle: saline with Tween-80
  survivor count: 4 of 6
dose: 50.0 mg/kg/injection, schedule: Q04DX003 (ip), vehicle: saline with Tween-80
  survivor count: 3 of 6
dose: 100.0 mg/kg/injection, schedule: Q01DX001 (ip), vehicle: other
  survivor count: 0 of 6
dose: 200.0 mg/kg/injection, schedule: Q01DX001 (ip), vehicle: other
  survivor count: 0 of 6
dose: 400.0 mg/kg/injection, schedule: Q01DX001 (ip), vehicle: other
  survivor count: 0 of 6

## COc1c(CO)c2c(c(OC)c1OC)-c1ccc(OC)c(=O)cc1[C@@H](NC(C)=O)CC2
dose: 22.0 mg/kg/injection, schedule: Q01DX015 (ip), vehicle: saline
  T/C: 126 % of control
dose: 50.0 mg/kg/injection, schedule: Q01DX015 (ip), vehicle: saline
  T/C: 135 % of control
dose: 75.0 mg/kg/injection, schedule: Q01DX015 (ip), vehicle: saline
  T/C: 143 % of control

## CC1(C)N=C(N)N=C(N)N1c1cccc(CCCCc2ccccc2)c1
dose: 80.0 mg/kg/injection, schedule: Q01DX001 (ip), vehicle: saline
  survivor count: 0 of 4
dose: 100.0 mg/kg/injection, schedule: Q01DX001 (ip), vehicle: saline
  survivor count: 0 of 4
[8]
  survivor count: 0 of 4
[9]
  survivor count: 0 of 4

## CCCCCCCc1ccc(C(C)=O)cc1
[1]
  T/C: 127 % of control

## C/C(=N/C(=O)NN)c1ccc(Cl)cc1
[2]
  survivor count: 5 of 6

## CC[CH](C)[Hg][c]1cccc2ccccc12 (stereo not given)
dose: 200.0 mg/kg/injection, schedule: Q01DX009 (ip), vehicle: Klucel (hydroxypropylcellulose) (HPC)
  survivor count: 6 of 6
dose: 400.0 mg/kg/injection, schedule: Q01DX009 (ip), vehicle: Klucel (hydroxypropylcellulose) (HPC)
  survivor count: 6 of 6

## CC1(C)COP(Oc2ccccc2)OC1
[3]
  survivor count: 6 of 6

## CN(C)CC1C2C=CC(C3CC23)C1CN(C)C (stereo not given)
[7]
  survivor count: 0 of 6

## CCN1CC1 (tested in a mixture with another compound)
dose: 9.37 mg/kg/injection, schedule: Q01DX009 (ip), vehicle: Klucel (hydroxypropylcellulose) (HPC)
  survivor count: 0 of 6
dose: 12.5 mg/kg/injection, schedule: Q01DX001 (ip), vehicle: other
  T/C: 126 % of control [5 of 6 alive]
dose: 14.2 mg/kg/injection, schedule: Q01DX009 (ip), vehicle: Klucel (hydroxypropylcellulose) (HPC)
  survivor count: 0 of 6
dose: 21.3 mg/kg/injection, schedule: Q01DX009 (ip), vehicle: Klucel (hydroxypropylcellulose) (HPC)
  survivor count: 0 of 6
dose: 50.0 mg/kg/injection, schedule: Q01DX001 (ip), vehicle: other
  survivor count: 0 of 6
dose: 100.0 mg/kg/injection, schedule: Q01DX001 (ip), vehicle: Klucel (hydroxypropylcellulose) (HPC)
  survivor count: 0 of 6
dose: 200.0 mg/kg/injection, schedule: Q01DX001 (ip), vehicle: Klucel (hydroxypropylcellulose) (HPC)
  survivor count: 0 of 6
dose: 400.0 mg/kg/injection, schedule: Q01DX001 (ip), vehicle: Klucel (hydroxypropylcellulose) (HPC)
  survivor count: 0 of 6

## COc1ccc(OC)c(NC(=S)NC(=O)c2ccc(Cl)cc2Cl)c1
[3]
  survivor count: 6 of 6

## O=S(=O)(F)/C=C\c1ccccc1
dose: 50.0 mg/kg/injection, schedule: Q01DX009 (ip), vehicle: acetone
  survivor count: 6 of 6
dose: 100.0 mg/kg/injection, schedule: Q01DX009 (ip), vehicle: acetone
  survivor count: 6 of 6
dose: 400.0 mg/kg/injection, schedule: Q01DX001 (ip), vehicle: acetone
  survivor count: 3 of 6

## SCC1SCCCS1
[4]
  survivor count: 1 of 3
[5]
  survivor count: 0 of 3
[6]
  survivor count: 0 of 3
